# Library screen at single concentrations

Chains of the proteins cited; added tags and fusions are not shown. Residues count along the entry.
UniProt Q8IDJ8, 1-583: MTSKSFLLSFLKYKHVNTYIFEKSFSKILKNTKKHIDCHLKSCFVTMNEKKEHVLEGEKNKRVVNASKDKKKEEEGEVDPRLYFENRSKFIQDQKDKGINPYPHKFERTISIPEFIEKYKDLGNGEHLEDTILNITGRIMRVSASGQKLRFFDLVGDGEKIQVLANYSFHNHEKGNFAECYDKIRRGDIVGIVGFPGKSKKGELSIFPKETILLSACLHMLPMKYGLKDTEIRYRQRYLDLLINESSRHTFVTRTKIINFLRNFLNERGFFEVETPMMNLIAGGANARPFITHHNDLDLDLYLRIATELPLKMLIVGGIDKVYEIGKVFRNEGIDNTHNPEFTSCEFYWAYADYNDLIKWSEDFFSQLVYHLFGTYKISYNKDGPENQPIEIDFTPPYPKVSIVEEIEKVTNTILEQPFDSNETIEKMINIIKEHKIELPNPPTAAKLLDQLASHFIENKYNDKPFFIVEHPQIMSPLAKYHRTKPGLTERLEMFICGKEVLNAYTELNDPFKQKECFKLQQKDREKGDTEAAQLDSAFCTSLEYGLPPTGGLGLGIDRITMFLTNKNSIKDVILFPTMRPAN
UniProt Q4DA54, 1-478: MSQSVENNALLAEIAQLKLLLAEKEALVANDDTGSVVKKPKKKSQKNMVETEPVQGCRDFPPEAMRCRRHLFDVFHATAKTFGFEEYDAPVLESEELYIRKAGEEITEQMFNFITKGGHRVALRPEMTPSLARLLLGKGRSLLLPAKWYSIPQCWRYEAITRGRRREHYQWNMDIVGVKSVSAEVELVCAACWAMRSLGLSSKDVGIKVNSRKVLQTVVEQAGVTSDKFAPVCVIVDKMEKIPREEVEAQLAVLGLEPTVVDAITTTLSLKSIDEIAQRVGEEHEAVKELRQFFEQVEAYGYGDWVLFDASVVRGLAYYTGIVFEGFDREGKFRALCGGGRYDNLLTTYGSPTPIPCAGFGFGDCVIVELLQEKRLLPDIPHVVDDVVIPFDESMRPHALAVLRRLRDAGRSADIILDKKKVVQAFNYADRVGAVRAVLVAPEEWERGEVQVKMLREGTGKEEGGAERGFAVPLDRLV
UniProt I6X8D2, whole entry: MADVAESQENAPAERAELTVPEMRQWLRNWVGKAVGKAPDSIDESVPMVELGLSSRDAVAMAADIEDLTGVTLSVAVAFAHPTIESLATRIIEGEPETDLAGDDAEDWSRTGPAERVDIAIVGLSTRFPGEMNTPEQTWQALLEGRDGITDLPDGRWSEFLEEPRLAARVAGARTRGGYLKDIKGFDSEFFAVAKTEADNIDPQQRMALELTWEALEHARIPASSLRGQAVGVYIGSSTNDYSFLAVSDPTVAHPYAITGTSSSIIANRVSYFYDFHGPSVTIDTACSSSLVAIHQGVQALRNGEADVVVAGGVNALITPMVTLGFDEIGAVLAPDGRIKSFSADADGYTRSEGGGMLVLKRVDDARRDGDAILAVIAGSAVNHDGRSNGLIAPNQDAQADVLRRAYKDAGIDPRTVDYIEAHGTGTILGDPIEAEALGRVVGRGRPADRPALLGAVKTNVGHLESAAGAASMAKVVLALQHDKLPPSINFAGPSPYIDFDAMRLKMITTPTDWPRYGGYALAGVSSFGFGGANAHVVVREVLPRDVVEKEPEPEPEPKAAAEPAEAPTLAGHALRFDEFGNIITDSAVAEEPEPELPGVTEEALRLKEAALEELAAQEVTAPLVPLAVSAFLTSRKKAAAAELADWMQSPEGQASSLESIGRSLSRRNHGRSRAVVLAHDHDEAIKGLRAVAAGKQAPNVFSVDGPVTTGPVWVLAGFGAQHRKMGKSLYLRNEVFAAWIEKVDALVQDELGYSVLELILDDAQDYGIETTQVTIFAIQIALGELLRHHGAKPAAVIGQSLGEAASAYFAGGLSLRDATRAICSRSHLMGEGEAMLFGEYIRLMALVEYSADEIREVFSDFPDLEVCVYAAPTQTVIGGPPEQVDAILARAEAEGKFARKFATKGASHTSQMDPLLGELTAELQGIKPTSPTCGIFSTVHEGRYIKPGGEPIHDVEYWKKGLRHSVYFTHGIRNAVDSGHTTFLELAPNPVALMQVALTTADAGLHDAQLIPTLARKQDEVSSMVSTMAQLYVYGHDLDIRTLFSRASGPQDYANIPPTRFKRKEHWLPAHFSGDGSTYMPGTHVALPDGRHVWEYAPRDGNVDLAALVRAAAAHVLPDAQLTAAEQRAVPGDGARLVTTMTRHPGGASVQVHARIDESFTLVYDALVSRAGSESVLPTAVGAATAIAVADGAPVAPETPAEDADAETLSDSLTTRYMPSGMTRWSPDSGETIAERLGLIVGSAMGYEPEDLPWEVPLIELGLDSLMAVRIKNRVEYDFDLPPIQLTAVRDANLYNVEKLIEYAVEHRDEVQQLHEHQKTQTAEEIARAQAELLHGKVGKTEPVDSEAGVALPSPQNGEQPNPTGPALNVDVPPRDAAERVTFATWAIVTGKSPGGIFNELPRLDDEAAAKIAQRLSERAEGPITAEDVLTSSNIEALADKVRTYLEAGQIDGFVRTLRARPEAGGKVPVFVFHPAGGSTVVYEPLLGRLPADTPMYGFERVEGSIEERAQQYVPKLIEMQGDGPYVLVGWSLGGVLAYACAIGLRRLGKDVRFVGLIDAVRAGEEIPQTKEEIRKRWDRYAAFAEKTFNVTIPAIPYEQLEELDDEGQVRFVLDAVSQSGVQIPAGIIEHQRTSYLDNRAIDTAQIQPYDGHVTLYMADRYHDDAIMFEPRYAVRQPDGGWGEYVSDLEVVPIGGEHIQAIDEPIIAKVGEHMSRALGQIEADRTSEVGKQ

Data taken from ChEMBL document CHEMBL3988442, “University of Dundee, Small-Polar-MMV Screening Library” (2021).

The filed quantity is “Percent Effect” (%).
The record does not define 0% and 100%; most values in the screen are far below 50% and negative numbers occur (in some assays of this library far below -100).
This is an unselected part of the compounds tested.

PfKRS1: 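Enzyme assay of the cytosolic lysyl-tRNA synthetase in 384-well plates, read by luminescence. Target: Lysine-tRNA ligase, Plasmodium falciparum 3D7 (UniProt Q8IDJ8). Tested at 30 µM. Direction is inferred from only a few compounds that gave an IC50; most scored high, so higher reads as stronger inhibition. About 69,000 compounds were tested under these conditions; 0.071% (about 49) showed 50% or more at least once.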
TcHisRS: 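Enzyme assay of histidyl-tRNA synthetase; the read-out is not stated. Target: Histidine-tRNA ligase, Trypanosoma cruzi CL Brener (UniProt Q4DA54). Compounds at 30 µM. The record gives no direction; compounds that gave an IC50 in retests scored well above the rest, so higher reads as stronger inhibition. Of about 69,000 compounds tested this way, about 31 (0.045%) reached 50% or more in at least one test.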
Pks13 thioesterase: 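Enzyme assay of the thioesterase domain of polyketide synthase 13; the read-out is not stated. Target: Polyketide synthase Pks13, Mycobacterium tuberculosis (UniProt I6X8D2). Concentration: 30 µM. Higher reads as stronger inhibition (inferred from which compounds were picked for retests). About 67,000 compounds were tested under these conditions; 0.46% (about 300) showed 50% or more at least once.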

CN(CC1CCCCO1)c1nc(-c2cccnc2)nc2c1CCNC2 (stereo not drawn) gave PfKRS1: -1.413%; TcHisRS: 10.16%; Pks13 thioesterase: -26.63%. Result for Cc1cc(C)nc(C2CCN(C3CCCCC3)C2)n1 (stereo not drawn) was PfKRS1: 1.202%; TcHisRS: 3.101%; Pks13 thioesterase: 3.913%. For Cc1nc(-c2nnc[nH]2)sc1C(=O)N1CCCC1c1ccsc1 (stereo not drawn) the result was PfKRS1: 4.047%; TcHisRS: 3.191%; Pks13 thioesterase: -8.773%. CC(C)N1CCC(Cc2cc(-c3cc(F)ccc3C(=O)O)ncn2)C1 (stereo not drawn) read PfKRS1: 4.063%; TcHisRS: 6.667%; Pks13 thioesterase: 2.846%. For Cc1ccc(CN2CCN(C3CCC3)CC2CCO)o1 (stereo not drawn) the result was PfKRS1: 1.913%; TcHisRS: 7.182%; Pks13 thioesterase: -30.91%. CCc1n[nH]c(C2CN(C(=O)c3ncoc3CC)CCO2)n1 (stereo not drawn) read PfKRS1: -0.8714%; TcHisRS: 6.857%; Pks13 thioesterase: -48.25%.

With CCN(Cc1ccncc1)CC1(C)Cc2c(N)nc(N)nc2O1 (stereo not drawn) the screen gave PfKRS1: 1.053%; TcHisRS: 7.576%; Pks13 thioesterase: 3.713%. With CCn1cnnc1CN(C)C(=O)C1CCC(=O)N(CC2CCCCC2)C1 (stereo not drawn) the screen gave PfKRS1: 1.001%; TcHisRS: 5.587%; Pks13 thioesterase: -27.47%. CCCn1ccnc1CN1CCN(C2CCOCC2)CC(C(N)=O)C1 (stereo not drawn) read PfKRS1: 0.3575%; TcHisRS: -6.742%; Pks13 thioesterase: -11.5%. For Cn1nc(C(C)(C)C)cc1NC(=O)Cn1ccnc1 the result was PfKRS1: 5.951%; TcHisRS: 5.6%; Pks13 thioesterase: -9.243%. O=C(NCc1ccccc1CO)C1COc2ccccc21 (stereo not drawn) gave PfKRS1: 3.136%; TcHisRS: 2.469%; Pks13 thioesterase: -7.933%. O=C(c1ccc(Oc2cccnc2)cc1)N1CCN(CCO)CC1 gave PfKRS1: 2.043%; TcHisRS: 2.299%; Pks13 thioesterase: -19.52%.

For Cc1nn(-c2ccc(F)cc2)c2[nH]nc(N)c12 the result was PfKRS1: -1.822%; TcHisRS: -2.956%; Pks13 thioesterase: 3.097%. Result for Cc1cccc(CN2CCC3(CC(C(=O)NCC(C)C)=NO3)C2)c1 (stereo not drawn) was PfKRS1: 3.268%; TcHisRS: 7.778%; Pks13 thioesterase: 4.667%. With O=C(c1cc2cccc(F)c2[nH]1)N1C[C@@H](O)[C@H](N2CCCC2)C1 the screen gave PfKRS1: 0.9659%; TcHisRS: 4.286%; Pks13 thioesterase: -3.368%. CCC1CN(CC(=O)NCCC#N)CCO1 (stereo not drawn) read PfKRS1: 5.206%; TcHisRS: -1.538%; Pks13 thioesterase: 7.881%. With OCc1cc2ccccc2nc1NC1CC=CC1 the screen gave PfKRS1: 5.953%; TcHisRS: 7.514%; Pks13 thioesterase: -2.263%. For COc1ccccc1N1CCN(C(=O)CCc2nncn2C)C(C)C1 (stereo not drawn) the result was PfKRS1: 4.178%; TcHisRS: 0.8929%; Pks13 thioesterase: -11.89%.

Result for CCc1nccn1C1CCCN(C(=O)CCCNc2ncccn2)C1 (stereo not drawn) was PfKRS1: 1.234%; TcHisRS: 1.88%; Pks13 thioesterase: -7.8%. With CN1CC(=O)N(c2ccccc2)CC12CCN(S(C)(=O)=O)C2 (stereo not drawn) the screen gave PfKRS1: -6.293%; TcHisRS: 1.97%; Pks13 thioesterase: -47.51%.

Repeated from the top, 3 entries:

structure,PfKRS1,TcHisRS,Pks13 thioesterase
CN(CC1CCCCO1)c1nc(-c2cccnc2)nc2c1CCNC2 (stereo not drawn),-1.413%,10.16%,-26.63%
Cc1cc(C)nc(C2CCN(C3CCCCC3)C2)n1 (stereo not drawn),1.202%,3.101%,3.913%
Cc1nc(-c2nnc[nH]2)sc1C(=O)N1CCCC1c1ccsc1 (stereo not drawn),4.047%,3.191%,-8.773%